Publication PMC4649506
Results are given in words; binding and its absence hold for the method and conditions named. Binding seen in cells or lysates may run through a third protein. Some entries that bind do so weakly or less than the wild type.

By UniProt entry, the sequences of proteins in these tests, tags left out. Residues count along the entry.
UniProt P43403: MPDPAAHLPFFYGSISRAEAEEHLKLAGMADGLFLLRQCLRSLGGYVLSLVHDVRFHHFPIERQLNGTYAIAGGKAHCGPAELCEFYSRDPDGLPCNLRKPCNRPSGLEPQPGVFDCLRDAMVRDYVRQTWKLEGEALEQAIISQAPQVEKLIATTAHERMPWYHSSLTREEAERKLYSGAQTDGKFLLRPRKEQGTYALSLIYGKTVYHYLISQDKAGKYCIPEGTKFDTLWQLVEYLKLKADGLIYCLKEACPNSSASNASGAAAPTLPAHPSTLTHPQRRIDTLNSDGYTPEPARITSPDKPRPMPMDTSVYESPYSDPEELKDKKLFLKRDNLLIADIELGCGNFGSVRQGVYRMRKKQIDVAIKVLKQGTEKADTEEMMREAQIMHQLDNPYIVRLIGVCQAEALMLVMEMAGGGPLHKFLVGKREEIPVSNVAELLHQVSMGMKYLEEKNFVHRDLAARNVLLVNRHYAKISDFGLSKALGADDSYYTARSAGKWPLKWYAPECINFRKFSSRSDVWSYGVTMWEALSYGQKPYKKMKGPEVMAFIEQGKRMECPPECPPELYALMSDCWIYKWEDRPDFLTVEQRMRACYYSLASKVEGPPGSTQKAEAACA
UniProt P11912, residues 33-226: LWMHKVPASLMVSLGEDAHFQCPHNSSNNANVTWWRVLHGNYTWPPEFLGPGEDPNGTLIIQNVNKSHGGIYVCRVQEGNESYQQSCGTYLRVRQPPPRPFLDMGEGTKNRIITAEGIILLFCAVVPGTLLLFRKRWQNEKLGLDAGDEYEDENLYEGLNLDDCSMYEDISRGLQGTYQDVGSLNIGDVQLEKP

Molecular target: zeta-chain-associated protein 70 (ZAP-70) (UniProt P43403)
Experiment: co-IP; 500 ug protein of Raji-ZAP-70 lysate in 0.2% CHAPS lysis buffer (150 mM NaCl, 20 mM Tris, 10% glycerol, 2 mM EDTA, orthovanadate), mouse anti-Syk or mouse anti-ZAP-70 overnight at 4 °C, protein G plus agarose; cells treated with DMSO or 20 uM gefitinib for 24 h

CD79a (from UniProt P11912 33-226) (receptor)
binding: binds
